Results on five molecules are retold here after PMC7804203, “Targeting adaptor protein SLP76 of RAGE as a therapeutic approach for lethal sepsis” (Nature Communications, 2021).

The chains behind the UniProt entries cited, without tags or fusion partners. Residues count along the entry.
UniProt Q62151, residues 23-402: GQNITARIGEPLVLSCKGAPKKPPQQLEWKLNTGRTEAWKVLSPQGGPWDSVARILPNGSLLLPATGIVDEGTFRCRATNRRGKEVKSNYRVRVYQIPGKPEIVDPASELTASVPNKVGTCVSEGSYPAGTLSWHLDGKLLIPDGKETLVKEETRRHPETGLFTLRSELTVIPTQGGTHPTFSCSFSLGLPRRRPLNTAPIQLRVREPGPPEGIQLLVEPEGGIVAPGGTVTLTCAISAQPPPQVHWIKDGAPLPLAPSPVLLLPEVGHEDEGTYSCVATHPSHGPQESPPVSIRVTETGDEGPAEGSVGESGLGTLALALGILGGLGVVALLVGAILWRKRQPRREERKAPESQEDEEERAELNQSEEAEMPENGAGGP
UniProt Q15109, residues 23-404: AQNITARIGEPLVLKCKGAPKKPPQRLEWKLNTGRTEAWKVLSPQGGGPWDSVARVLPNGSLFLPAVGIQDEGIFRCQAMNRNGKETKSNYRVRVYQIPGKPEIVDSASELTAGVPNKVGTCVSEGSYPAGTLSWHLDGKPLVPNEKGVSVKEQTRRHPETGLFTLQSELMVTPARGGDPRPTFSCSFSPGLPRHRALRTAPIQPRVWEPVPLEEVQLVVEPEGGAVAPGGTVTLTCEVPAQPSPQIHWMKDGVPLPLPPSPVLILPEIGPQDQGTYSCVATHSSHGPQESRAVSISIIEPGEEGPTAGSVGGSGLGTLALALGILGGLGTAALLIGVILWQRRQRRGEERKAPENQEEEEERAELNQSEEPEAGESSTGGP

The target of experiment [1] is T1, Flag-tagged full-length SLP76 (UniProt Q13094).
T1 sequence: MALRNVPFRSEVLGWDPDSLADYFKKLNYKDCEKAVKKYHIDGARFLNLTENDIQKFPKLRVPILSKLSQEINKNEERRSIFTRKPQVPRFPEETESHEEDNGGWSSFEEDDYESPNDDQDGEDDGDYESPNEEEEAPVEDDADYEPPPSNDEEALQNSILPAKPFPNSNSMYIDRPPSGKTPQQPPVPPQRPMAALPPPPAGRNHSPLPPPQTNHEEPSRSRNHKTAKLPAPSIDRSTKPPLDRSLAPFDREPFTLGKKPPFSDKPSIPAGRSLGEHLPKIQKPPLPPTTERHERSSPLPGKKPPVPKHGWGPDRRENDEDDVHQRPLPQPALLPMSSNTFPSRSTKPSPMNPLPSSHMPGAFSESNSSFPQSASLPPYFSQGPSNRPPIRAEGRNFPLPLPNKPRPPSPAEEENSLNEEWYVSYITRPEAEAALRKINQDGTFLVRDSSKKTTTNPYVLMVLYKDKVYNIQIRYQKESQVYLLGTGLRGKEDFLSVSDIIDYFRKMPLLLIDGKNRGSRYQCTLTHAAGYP
Nature of the experiment: co-IP; HEK293 cotransfected with HA-RAGE and Flag-SLP76; treated with different doses of AGEs; 500 µg lysate with anti-FLAG M2 beads overnight at 4 °C; blot for HA (reverse immunoprecipitation).

For experiment [2], the target named is endogenous RAGE of RAW264.7 cells (mouse (endogenous in RAW264.7)) (UniProt Q62151). Nature of the experiment: co-IP; endogenous proteins of RAW264.7 cells, AGEs (100 μg/ml) for 15 min or untreated; 500 µg lysate with 1 µg anti-RAGE antibody and protein G-Sepharose overnight at 4 °C; blot for SLP76.
For experiment [3], the target named is HA-tagged full-length RAGE (UniProt Q15109). Nature of the experiment: co-IP; HEK293 cotransfected with HA-RAGE (or mutants) and Flag-SLP76 (or mutants); treated with AGEs at different doses and times (100 μg/ml, 15 min in the mapping) or untreated; 500 µg lysate with anti-HA affinity gel overnight at 4 °C; blot for Flag.
The target of the next experiment is ECFP-tagged RAGE (UniProt Q15109). Nature of the experiment: FRET or BRET; live HEK293 cells cotransfected with pECFP-RAGE and pEYFP-SLP76 or pEYFP-SLP76(ΔSAM), 36 h after transfection; sensitised emission, Net FRET.

These are yes or no findings as the source states them, for the method shown. Binding seen in cells or lysates may run through a third protein. Some results given as binding are weak or reduced against the parent protein; the word gives no strength. For some assays here: Sequences can lack the tags named with a protein.

In the case of “HA-tagged full-length RAGE (from UniProt Q15109 23-404) (receptor)”, the binding entry in experiment [1] is given as “binds”.

B1: endogenous SLP76 of RAW264.7 cells (protein, UniProt Q60787 1-533)
chain: MALKNVPFRSEVLAWNSDNLADYFRKLNYRDCEKAVKKYHIDGARFLNLTENDIQKFPKLRMPLLSKLSQDINKNEERRSIFTRKPQIPRFLEETESHEEDDGGWSSFEDDYESPNDDDPDGEDDGDYESPNEEEQALVDDAADYEPPPSNNEEALQSSILPPNSFHNTNSMYIDRPPTGKVSQQPPVPPLRPKPALPPLPTGRNHSPLSPPHPNHEEPSRSGNNKTAKLPAPSIDRSTKPPLDRSLAPLDREPFILGKKPPFSDKPSAPLGREHLPKIQKPPLPPAMDRHERNERLGPVTTRKPPVPRHGRGPDRRENDEDDVHQRPLPQPSLPSMSSNTFPSRSVQPSSKNTFPLAHMPGAFSESNIGFQQSASLPPYFSQGPGNRPPLRSEGRNLPLPVPNRPQPPSPGEEETPLDEEWYVSYITRPEAEAALRKINQDGTFLVRDSSKKTANNPYVLMVLYKDKVYNIQIRYQEESQVYLLGTGLRGKEDFLSVSDIIDYFRKMPLLLIDGKNRGSRYQCTLTHAAGCL
For B1, the binding entry in experiment [2] was “binds”.

B2: Flag-tagged SLP76 Y113A (protein, UniProt Q13094 1-533)
chain: MALRNVPFRSEVLGWDPDSLADYFKKLNYKDCEKAVKKYHIDGARFLNLTENDIQKFPKLRVPILSKLSQEINKNEERRSIFTRKPQVPRFPEETESHEEDNGGWSSFEEDDAESPNDDQDGEDDGDYESPNEEEEAPVEDDADYEPPPSNDEEALQNSILPAKPFPNSNSMYIDRPPSGKTPQQPPVPPQRPMAALPPPPAGRNHSPLPPPQTNHEEPSRSRNHKTAKLPAPSIDRSTKPPLDRSLAPFDREPFTLGKKPPFSDKPSIPAGRSLGEHLPKIQKPPLPPTTERHERSSPLPGKKPPVPKHGWGPDRRENDEDDVHQRPLPQPALLPMSSNTFPSRSTKPSPMNPLPSSHMPGAFSESNSSFPQSASLPPYFSQGPSNRPPIRAEGRNFPLPLPNKPRPPSPAEEENSLNEEWYVSYITRPEAEAALRKINQDGTFLVRDSSKKTTTNPYVLMVLYKDKVYNIQIRYQKESQVYLLGTGLRGKEDFLSVSDIIDYFRKMPLLLIDGKNRGSRYQCTLTHAAGYP
Regarding B2, in experiment [3], the binding result was “binds”.

B3: EYFP-tagged SLP76 (protein, UniProt Q13094 1-533)
chain: MALRNVPFRSEVLGWDPDSLADYFKKLNYKDCEKAVKKYHIDGARFLNLTENDIQKFPKLRVPILSKLSQEINKNEERRSIFTRKPQVPRFPEETESHEEDNGGWSSFEEDDYESPNDDQDGEDDGDYESPNEEEEAPVEDDADYEPPPSNDEEALQNSILPAKPFPNSNSMYIDRPPSGKTPQQPPVPPQRPMAALPPPPAGRNHSPLPPPQTNHEEPSRSRNHKTAKLPAPSIDRSTKPPLDRSLAPFDREPFTLGKKPPFSDKPSIPAGRSLGEHLPKIQKPPLPPTTERHERSSPLPGKKPPVPKHGWGPDRRENDEDDVHQRPLPQPALLPMSSNTFPSRSTKPSPMNPLPSSHMPGAFSESNSSFPQSASLPPYFSQGPSNRPPIRAEGRNFPLPLPNKPRPPSPAEEENSLNEEWYVSYITRPEAEAALRKINQDGTFLVRDSSKKTTTNPYVLMVLYKDKVYNIQIRYQKESQVYLLGTGLRGKEDFLSVSDIIDYFRKMPLLLIDGKNRGSRYQCTLTHAAGYP
B3: in the experiment with ECFP-tagged RAGE, the binding result is given as “binds”.

B4: Flag-tagged full-length SLP76 (protein, UniProt Q13094 1-533)
chain: MALRNVPFRSEVLGWDPDSLADYFKKLNYKDCEKAVKKYHIDGARFLNLTENDIQKFPKLRVPILSKLSQEINKNEERRSIFTRKPQVPRFPEETESHEEDNGGWSSFEEDDYESPNDDQDGEDDGDYESPNEEEEAPVEDDADYEPPPSNDEEALQNSILPAKPFPNSNSMYIDRPPSGKTPQQPPVPPQRPMAALPPPPAGRNHSPLPPPQTNHEEPSRSRNHKTAKLPAPSIDRSTKPPLDRSLAPFDREPFTLGKKPPFSDKPSIPAGRSLGEHLPKIQKPPLPPTTERHERSSPLPGKKPPVPKHGWGPDRRENDEDDVHQRPLPQPALLPMSSNTFPSRSTKPSPMNPLPSSHMPGAFSESNSSFPQSASLPPYFSQGPSNRPPIRAEGRNFPLPLPNKPRPPSPAEEENSLNEEWYVSYITRPEAEAALRKINQDGTFLVRDSSKKTTTNPYVLMVLYKDKVYNIQIRYQKESQVYLLGTGLRGKEDFLSVSDIIDYFRKMPLLLIDGKNRGSRYQCTLTHAAGYP
Turning to B4, in experiment [3], the binding result is listed as “binds”.
